Assay [1] deals with ReNCell VM. Description: neuronal differentiation score (DCX+ cell fraction vs untreated, manual image score) (score (-3 to 3)); higher = more neuronal differentiation. As to conditions: 2 uM, 2 weeks.
For assay [2], the system named is ReNCell VM. As to the kind of experiment: dopaminergic neuron differentiation score (TH+ cell fraction vs untreated, manual image score) (score (0 to 3)); higher = more TH+ dopaminergic neuron differentiation. As to conditions: 2 uM, 4 weeks, BDNF 10 ng/ml + GDNF 10 ng/ml.

Counter-ions that a name gives are not always drawn. This is one part of the list. This data set is noisy: repeats of one test often differ as much as different tests do.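 ReNCell VM, a human fetal ventral-midbrain neural progenitor line, was differentiated without mitogens. Blinded raters scored images stained for doublecortin (early neurons) or tyrosine hydroxylase (dopaminergic neurons) against untreated wells (0 = no change). Scores were averaged across repeats and both raters, and compounds averaging 2 or more were selected as hits for retesting.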

Take `O=C(O)c1ccccc1`: the neuronal differentiation score in the assay on ReNCell VM [1] (library: Spectrum) was inactive: 0. For the same molecule, the “dopaminergic neuron differentiation score” value in the assay with ReNCell VM [2] (library: Spectrum) is inactive: 1.

In the case of `CCCC[P+](CCCC)(CCCC)Cc1ccc(NC(=O)C(Cc2ccc3ccccc3c2)NC(=NC2CCCCC2)NC2CCCCC2)cc1` (stereo not drawn), the neuronal differentiation score with ReNCell VM [1] (library: Tocriscreen) was inactive: 0. Moreover, the “dopaminergic neuron differentiation score” value with ReNCell VM [2] (library: Tocriscreen) was inactive: 0.

Turning to `N[C@H]1CONC1=O` [L-Cycloserine], the neuronal differentiation score in the assay on ReNCell VM [1] (library: LOPAC) is inactive: 0. Also, the “dopaminergic neuron differentiation score” value with ReNCell VM [2] (library: LOPAC) was inactive: 0.

Regarding `c1ccc(C(O[C@@H]2CCCN(CCc3ccc4c(c3)OCO4)C2)c2ccccc2)cc1` [Zamifenacin fumarate], in the assay with ReNCell VM [1] (library: Tocriscreen), the neuronal differentiation score is inactive: 0. In addition, the “dopaminergic neuron differentiation score” value with ReNCell VM [2] (library: Tocriscreen) was inactive: 0.

Turning to `c1cnc(N2CCN(Cc3ccc4c(c3)OCO4)CC2)nc1` [Piribedil hydrochloride], the neuronal differentiation score in the assay with ReNCell VM [1] (library: Prestwick) is inactive: 0. Besides, in the assay on ReNCell VM [2] (library: Prestwick), the “dopaminergic neuron differentiation score” value is inactive: 0.

As to `CNc1cc2c(Nc3cccc(Br)c3)ncnc2cn1`, in the assay with ReNCell VM [1] (library: Tocriscreen), the neuronal differentiation score was inactive: 0. For the same molecule, the “dopaminergic neuron differentiation score” value in the assay with ReNCell VM [2] (library: Tocriscreen) was inactive: 0.

As to `CC(C)[C@H](NS(=O)(=O)c1ccc(-c2ccc(Br)cc2)cc1)C(=O)O`, the neuronal differentiation score with ReNCell VM [1] (library: Tocriscreen) was inactive: 0. Besides, the “dopaminergic neuron differentiation score” value in the assay on ReNCell VM [2] (library: Tocriscreen) is inactive: 0.

As for `COC(=O)C1=CO[C@@H](O[C@@H]2O[C@H](CO)[C@@H](O)[C@H](O)[C@H]2O)[C@H]2[C@@H]1C(=O)C[C@@H]2C`, the neuronal differentiation score in the assay with ReNCell VM [1] (library: Spectrum) was inactive: 1. Besides, the “dopaminergic neuron differentiation score” value with ReNCell VM [2] (library: Spectrum) is inactive: 0.

Take `Nc1nc(=S)c2ncn([C@@H]3O[C@H](CO)[C@@H](O)[C@H]3O)c2[nH]1` [Thioguanosine]: the neuronal differentiation score in the assay on ReNCell VM [1] (library: Prestwick) is inactive: 0. In addition, the “dopaminergic neuron differentiation score” value with ReNCell VM [2] (library: Prestwick) is inactive: 0.

Turning to `COc1cc(C=CC(=O)c2c(O)cc(C)oc2=O)ccc1O`, the neuronal differentiation score in the assay with ReNCell VM [1] (library: Natural) is inactive: -3. Also, in the assay with ReNCell VM [2] (library: Natural), the “dopaminergic neuron differentiation score” value was inactive: 0.

In the case of `O=C(CCNNC(=O)c1ccncc1)NCc1ccccc1`, the neuronal differentiation score with ReNCell VM [1] (library: Spectrum) was inactive: 0. The “dopaminergic neuron differentiation score” value with ReNCell VM [2] (library: Spectrum) was inactive: 0.

For the molecule `Cc1onc(-c2ccccc2)c1C(=O)N[C@@H]1C(=O)N2[C@@H]1SC(C)(C)[C@@H]2C(=O)O` [Oxacillin sodium], the neuronal differentiation score with ReNCell VM [1] (library: Prestwick) is inactive: 0. Further, in the assay with ReNCell VM [2] (library: Prestwick), the “dopaminergic neuron differentiation score” value was inactive: 0.

In the case of `CC(=O)[C@H]1CC[C@H]2[C@@H]3CC=C4C[C@@H](OS(=O)(=O)O)CC[C@]4(C)[C@H]3CC[C@]12C` [Pregnenolone sulfate sodium], in the assay with ReNCell VM [1] (library: LOPAC), the neuronal differentiation score was inactive: 0. Also, the “dopaminergic neuron differentiation score” value with ReNCell VM [2] (library: LOPAC) is inactive: 1.

Take `CC(C)NCC(O)COc1cccc2ccccc12` (stereo not drawn) [Propranolol hydrochloride]: the neuronal differentiation score with ReNCell VM [1] (library: Tocriscreen) was inactive: 0. In addition, the “dopaminergic neuron differentiation score” value in the assay on ReNCell VM [2] (library: Tocriscreen) was inactive: 0.

As for `Cc1cccc(C#Cc2ccccc2)n1` [6-Methyl-2-(phenylethynyl)pyridine hydrochloride], the neuronal differentiation score in the assay with ReNCell VM [1] (library: LOPAC) is inactive: -1. Besides, in the assay on ReNCell VM [2] (library: LOPAC), the “dopaminergic neuron differentiation score” value was inactive: 0.

Consider `CC(O)CC(C)(C)O` (stereo not drawn), for which, in the assay with ReNCell VM [1] (library: Spectrum), the neuronal differentiation score was inactive: 0. Besides, the “dopaminergic neuron differentiation score” value in the assay on ReNCell VM [2] (library: Spectrum) was inactive: 1.

For the molecule `CCN1CCC[C@H]1CNC(=O)c1cc(S(N)(=O)=O)ccc1OC` [(S)-(-)-Sulpiride], the neuronal differentiation score with ReNCell VM [1] (library: Tocriscreen) was inactive: 0. Besides, the “dopaminergic neuron differentiation score” value in the assay on ReNCell VM [2] (library: Tocriscreen) is inactive: 0.

For `CCCCC(C)(O)C/C=C/[C@H]1[C@H](O)CC(=O)[C@@H]1CCCCCCC(=O)OC` (mixture of isomers) [Misoprostol], the neuronal differentiation score in the assay on ReNCell VM [1] (library: Prestwick) was inactive: 0. Besides, the “dopaminergic neuron differentiation score” value in the assay with ReNCell VM [2] (library: Prestwick) is inactive: 0.

For `NC[C@H]1O[C@H](O[C@H]2[C@H](O)[C@@H](O[C@H]3O[C@H](CO)[C@@H](O)[C@H](N)[C@H]3O)[C@H](N)C[C@@H]2N)[C@H](N)C[C@@H]1O` [Tobramycin], the neuronal differentiation score in the assay with ReNCell VM [1] (library: Prestwick) is inactive: 0. In addition, in the assay on ReNCell VM [2] (library: Prestwick), the “dopaminergic neuron differentiation score” value was inactive: 0.

For the molecule `CC(NCCC(c1ccccc1)c1ccccc1)c1ccccc1` (stereo not drawn) [Fendiline hydrochloride], the neuronal differentiation score with ReNCell VM [1] (library: Prestwick) is inactive: 0. Besides, the “dopaminergic neuron differentiation score” value with ReNCell VM [2] (library: Prestwick) was inactive: 0.

As to `COc1cc2c(cc1O)-c1ccccc1CN(C)C2` [3-methoxy-6-methyl-6,7-dihydro-5h-dibenzo[c,e]azepin-2-ol], the neuronal differentiation score with ReNCell VM [1] (library: Natural) was inactive: 0. Further, the “dopaminergic neuron differentiation score” value in the assay with ReNCell VM [2] (library: Natural) was inactive: 0.

Regarding `Nc1ccc(S(=O)(=O)c2ccc(N)cc2)cc1` [Dapsone], the neuronal differentiation score in the assay with ReNCell VM [1] (library: Prestwick) is inactive: 0. Moreover, the “dopaminergic neuron differentiation score” value in the assay on ReNCell VM [2] (library: Prestwick) is inactive: 0.

For `C=CCSCC=C`, the neuronal differentiation score in the assay with ReNCell VM [1] (library: Spectrum) is inactive: 0. In the assay on ReNCell VM [2] (library: Spectrum), the “dopaminergic neuron differentiation score” value was inactive: 0.

Turning to `N=C(N)c1ccc(OCCCCCOc2ccc(C(=N)N)cc2)cc1`, the neuronal differentiation score in the assay on ReNCell VM [1] (library: Spectrum) is inactive: 0. Also, the “dopaminergic neuron differentiation score” value with ReNCell VM [2] (library: Spectrum) is inactive: 0.

Turning to `Clc1ccc(COC(Cn2ccnc2)c2ccc(Cl)cc2Cl)c(Cl)c1` (stereo not drawn) [Miconazole], the neuronal differentiation score in the assay with ReNCell VM [1] (library: Prestwick) was inactive: 0. Also, in the assay on ReNCell VM [2] (library: Prestwick), the “dopaminergic neuron differentiation score” value was active: 3.

`COc1cc(OC)c(C(=O)CCCCN2CCC3(CC2)NC(=O)NC3=O)cc1NS(=O)(=O)c1ccc(C(F)(F)F)cc1`: the neuronal differentiation score in the assay with ReNCell VM [1] (library: Tocriscreen) was inactive: 0. Besides, in the assay on ReNCell VM [2] (library: Tocriscreen), the “dopaminergic neuron differentiation score” value is inactive: 0.

For the molecule `NC(=O)C(=O)O` [Sodium Oxamate], in the assay on ReNCell VM [1] (library: LOPAC), the neuronal differentiation score is inactive: 0. For the same molecule, in the assay on ReNCell VM [2] (library: LOPAC), the “dopaminergic neuron differentiation score” value was inactive: 0.

Consider `COc1cc(C)c2c(=O)cc(-c3ccccc3)oc2c1`, for which the neuronal differentiation score in the assay on ReNCell VM [1] (library: Spectrum) is inactive: 0. In addition, the “dopaminergic neuron differentiation score” value in the assay with ReNCell VM [2] (library: Spectrum) was inactive: 0.

With `CC[C@@H]1C(=O)OC[C@@H]1Cc1cncn1C`, the neuronal differentiation score in the assay on ReNCell VM [1] (library: Spectrum) is inactive: 0. The “dopaminergic neuron differentiation score” value in the assay with ReNCell VM [2] (library: Spectrum) was inactive: 0.

In the case of `NS(=O)(=O)c1cc2c(cc1C(F)(F)F)NC(Cc1ccccc1)NS2(=O)=O` (stereo not drawn) [Bendroflumethiazide], the neuronal differentiation score in the assay on ReNCell VM [1] (library: Prestwick) was inactive: 0. Also, the “dopaminergic neuron differentiation score” value with ReNCell VM [2] (library: Prestwick) was inactive: 0.

For `CC[C@H]1OC(=O)[C@H](C)[C@@H](O[C@H]2C[C@@](C)(OC)[C@@H](O)[C@H](C)O2)[C@H](C)[C@@H](O[C@@H]2O[C@H](C)C[C@H](N(C)C)[C@H]2O)[C@](C)(O)C[C@@H](C)[C@@H]2N[C@@H](COCCOC)O[C@H]([C@H]2C)[C@]1(C)O` [Dirithromycin], in the assay on ReNCell VM [1] (library: Prestwick), the neuronal differentiation score is inactive: 0. In addition, the “dopaminergic neuron differentiation score” value in the assay on ReNCell VM [2] (library: Prestwick) was inactive: 0.

Regarding `CC1(C)C[C@@H]2C(=O)CC[C@H]3O[C@]3(C)CC[C@H]21`, in the assay on ReNCell VM [1] (library: Spectrum), the neuronal differentiation score is inactive: 0. Besides, the “dopaminergic neuron differentiation score” value in the assay on ReNCell VM [2] (library: Spectrum) was inactive: 0.

Take `CO[C@H]1O[C@@H]2O[C@@]3(C)CC[C@H]4[C@H](C)CC[C@@H]([C@H]1C)[C@@]24OO3`: the neuronal differentiation score with ReNCell VM [1] (library: Spectrum) is inactive: 0. Further, the “dopaminergic neuron differentiation score” value in the assay with ReNCell VM [2] (library: Spectrum) was inactive: 0.

In the case of `C/C=C1\C(=O)C[C@H]2[C@@H]3CCC4=CC(=O)CC[C@]4(C)[C@H]3CC[C@]12C` [(Z)-Guggulsterone], in the assay with ReNCell VM [1] (library: LOPAC), the neuronal differentiation score is inactive: 0. Besides, the “dopaminergic neuron differentiation score” value in the assay on ReNCell VM [2] (library: LOPAC) was inactive: 0.

Values taken from the supplement of paper PMC4635364.
